Measured values reported in patent publication US8409580B2, “Therapeutic vaccine targeted against P-glycoprotein 170 for inhibiting multidrug resistance in the treatment of cancers” (AC Immune SA, priority 2003, dated 2013).
Where “and” joins values, the source holds several entries; their conditions need not be identical. Equal entries are not always repeated. Not every detail of the peptide structures is certain; ends, links or a residue may be inferred. Peptide text beside a SMILES is read from it. * marks the point of attachment. Palmitoyl = CCCCCCCCCCCCCCCC(=O)*

Tests used:
mice = assay: Immunogenicity of di- and tetrapalmitoylated conjugates in liposomes: antibody detection by Dot Blot and antibody titer; type: in vivo; settings: mice injected with liposomes containing the conjugate; first peptide synthesis
Description: In order to further understand the degree of immunogenicity of the conjugates according to the invention, two types of conjugates were produced and tested. The first type of conjugate corresponds to the synthetic sequences of the peptides derived from the extracellular loops of the murine P-170 protein, covalently coupled to four molecules of fatty acid containing a carbon chain of between C12 and C24, per molecule of peptide. The second type of conjugate is made up of a peptide coupled only to two molecules of fatty acid. This study is illustrated by means of a specific example of dipalmitoylated and tetrapalmitoylated conjugates.
Table III describes the sequences of the di- and tetrapalmitoylated conjugates corresponding to loops 1, 2 and 4 of the murine P-170 protein and also their immunogenic capacity measured through the detection of antibodies by the Dot Blot technique and also the antibody titer by fluorescence units. […] The mpp4 and mpp2 conjugates engender an immune response with an antibody titer in the region of 400 fluorescence units. […] In fact, the synthesis of this loop is very hard and long since there are many possible chemical terminations, or chemical rebridging which could explain the lack of immune response of this first batch of peptides. For the animal immunization trials, a further synthesis of the peptides, in particular of loop 1, was therefore carried out.
The conjugates according to the invention serving as antigenic molecules, diluted in PBS, are firstly deposited at ambient temperature onto nitrocellulose membranes. After 30 minutes, these antigenic molecules are blocked with 3 ml of a solution containing PBS-5% skim milk. The membranes are incubated for 2 hours at ambient temperature, without washing, with 24 μl of murine serum prediluted volume-for-volume with PBS, in 2 ml of PBS containing 1% of skim milk and 0.1% of tween 20. Said murine serum was taken during a period of 15 to 45 days after the third immunization. After three washes in PBS-1% skim milk-0.1% tween 20, the membranes are sequentially incubated for 1 hour at ambient temperature, in 3 ml of PBS-1% skim milk-0.1% tween 20 containing the peroxydase anti-mouse secondary antibody diluted to 1/3000, and then after 2 washes, in 3 ml of PBS-1% skim milk-0.1% tween 20. The membranes are then washed once for 10 minutes in PBS alone and kept in a refrigerator at 4° C. overnight, in 500 μl of PBS. […] The sensitivity of the chemoluminescence reaction has a threshold for detection of the induced antibodies evaluated at 0.2 ng/ml under the experimental conditions.

B6D2F1 mice = assay: Immune response in vivo in B6D2F1 mice immunized with the vaccine preparations (anti-mpp1, mpp2, mpp4 antibody isotypes, Dot Blot); settings: comparing the quantities of IgG1 antibodies
Method: The mice were immunized three times, two weeks apart, by intraperitoneal injection with 200 μl of vaccine composition. This experimental protocol is carried out for the four preparations on groups of nine B6D2F1 mice (Iffa Credo, L'Arbresle, France).
To quantify by Dot Blot the various immunoglobulins induced by the immunization, 100 μl of blood were taken, from each mouse, from the retroorbital sinus one day before the booster and 15 days after the final injection. Each blood sample was then centrifuged and the serum isolated was used for the quantification.
The conjugates according to the invention serving as antigenic molecules, diluted in PBS, are firstly deposited at ambient temperature onto nitrocellulose membranes. After 30 minutes, these antigenic molecules are blocked with 3 ml of a solution containing PBS-5% skim milk. The membranes are incubated for 2 hours at ambient temperature, without washing, with 24 μl of murine serum prediluted volume-for-volume with PBS, in 2 ml of PBS containing 1% of skim milk and 0.1% of tween 20. Said murine serum was taken during a period of 15 to 45 days after the third immunization. […] The sensitivity of the chemoluminescence reaction has a threshold for detection of the induced antibodies evaluated at 0.2 ng/ml under the experimental conditions. […]

Compound | Ac titer fluorescence (mice) | times more immunogenic than the mpp1 conjugate (B6D2F1 mice) [times] | times more immunogenic than the mpp4 conjugate (B6D2F1 mice) [times]
CCCCCCCCCCCCCCCC(=O)NCCCC[C@H](NC(=O)CNC(=O)[C@H](CO)NC(=O)[C@H](CC(N)=O)NC(=O)[C@@H]1CCCN1C(=O)CNC(=O)[C@H](CO)NC(=O)[C@H](CCC(N)=O)NC(=O)[C@H](CC(N)=O)NC(=O)[C@@H](NC(=O)[C@@H](NC(=O)[C@H](CO)NC(=O)[C@@H]1CCCN1C(=O)[C@H](CC(C)C)NC(=O)CNC(=O)CCCCCCCCCCCCCCC)[C@@H](C)CC)[C@@H](C)O)C(N)=O [mpp′1b] (Palmitoyl-GLPSITNQSGPNSGK(Palmitoyl)-NH2) | <10 fluorescence units |  | 
CCCCCCCCCCCCCCCC(=O)NCCCC[C@H](NC(=O)[C@H](CCCCNC(=O)CCCCCCCCCCCCCCC)NC(=O)CNC(=O)[C@H](CC(N)=O)NC(=O)[C@H](CCC(=O)O)NC(=O)[C@H](CC(N)=O)NC(=O)[C@H](CCC(N)=O)NC(=O)[C@H](CCCNC(=N)N)NC(=O)[C@H](CCCCN)NC(=O)[C@@H](NC(=O)[C@H](CCC(=O)O)NC(=O)[C@H](CCSC)NC(=O)[C@H](CC(=O)O)NC(=O)[C@H](CC(=O)O)NC(=O)[C@H](CC(=O)O)NC(=O)[C@H](CCCNC(=N)N)NC(=O)[C@H](CO)NC(=O)CNC(=O)[C@H](CCCCNC(=O)CCCCCCCCCCCCCCC)NC(=O)CCCCCCCCCCCCCCC)[C@@H](C)O)C(N)=O [mpp4] (Palmitoyl-K(Palmitoyl)GSRDDDMETKRQNENGK(Palmitoyl)K(Palmitoyl)-NH2) | ~400 fluorescence units |  | 
CCCCCCCCCCCCCCCC(=O)NCCCC[C@H](NC(=O)CNC(=O)[C@H](CCC(=O)O)NC(=O)[C@H](CCC(=O)O)NC(=O)[C@H](CCC(=O)O)NC(=O)[C@H](CC(C)C)NC(=O)[C@H](CO)NC(=O)[C@H](CO)NC(=O)[C@H](CC(N)=O)NC(=O)[C@H](CO)NC(=O)[C@@H](NC(=O)[C@@H](NC(=O)[C@H](CC(C)C)NC(=O)[C@@H](NC(=O)CNC(=O)CCCCCCCCCCCCCCC)[C@@H](C)O)[C@@H](C)CC)[C@@H](C)CC)C(N)=O [mpp′1c] (Palmitoyl-GTLIISNSSLEEEGK(Palmitoyl)-NH2) | <10 fluorescence units |  | 
CCCCCCCCCCCCCCCC(=O)NCCCC[C@H](NC(=O)[C@H](CCCCNC(=O)CCCCCCCCCCCCCCC)NC(=O)CNC(=O)[C@H](CCCCN)NC(=O)[C@H](C)NC(=O)[C@H](Cc1ccc(O)cc1)NC(=O)[C@H](C)NC(=O)[C@H](CCC(N)=O)NC(=O)[C@H](CC(C)C)NC(=O)[C@H](CCC(=O)O)NC(=O)[C@H](CCCCN)NC(=O)[C@H](CC(N)=O)NC(=O)[C@@H](NC(=O)[C@H](Cc1ccccc1)NC(=O)[C@H](CO)NC(=O)[C@@H](NC(=O)[C@H](CC(C)C)NC(=O)[C@@H](NC(=O)[C@H](CCCCN)NC(=O)CNC(=O)[C@H](CCCCNC(=O)CCCCCCCCCCCCCCC)NC(=O)CCCCCCCCCCCCCCC)C(C)C)[C@@H](C)O)[C@@H](C)O)C(N)=O [mpp2] (Palmitoyl-K(Palmitoyl)GKVLTSFTNKELQAYAKGK(Palmitoyl)K(Palmitoyl)-NH2) | ~400 fluorescence units and 360 fluorescence units | 2.6 | 2
